PubChem BioAssay AID1224826 – NIAID, 2016
Purpose: 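Genes that change LPS-induced Tnf promoter activity in mouse macrophages when knocked down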 (primary screen). System: RAW264.7 G9 macrophages from mouse bearing reporters for p65 (GFP) and the Tnf promoter (mCherry). Knock-down reagent: siRNA pool against mouse genes, 100 nM. Timing: 16 h of LPS stimulation, after 2 days of siRNA transfection. Challenge: bacterial lipopolysaccharide (Salmonella minnesota R595), 10 ng/ml. Read-out: 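Nuclear mCherry signal of the Tnf promoter reporter measured by imaging after background removal, scaled to each plate median and turned into robust z-scores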. Scale: Tnf reporter robust z-score: higher = stronger Tnf promoter reporter signal after LPS; Tnf reporter intensity: higher = stronger Tnf promoter reporter signal. Call rule: 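a well counts as active at a score of -1.3 or below (Tlr4 knock-down control median) or above 3 (raised signal); controls and wells holding fewer than 50 cells are excluded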. Meaning of the calls: active = Tnf reporter clearly lowered or raised; inactive = no clear change in Tnf reporter.
This is a random part of about 17,000 reagents. Over the whole deposit, about 1,110 (6.6%) were called active. 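Active means lowered or raised reporter signal; replicate intensities are raw and not normalised per plate.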 Further read-outs or replicates are left out here. No sequences are given here.

no.	gene	Tnf reporter robust z-score	fewer than 50 cells in well	Tnf reporter intensity, replicate 1	call
1	Fbxo28 (F-box protein 28)	2.06	enough cells in well	267	inactive
2	E230001N04Rik (RIKEN cDNA E230001N04 gene)	-1.01	enough cells in well	116	inactive
3	Orai1 (ORAI calcium release-activated calcium modulator 1)	-0.93	enough cells in well	69	inactive
4	Bop1 (block of proliferation 1)	-0.7	enough cells in well	53.9	inactive
5	Rad51 (RAD51 recombinase)	1.18	enough cells in well	453	inactive
6	Zfp692 (zinc finger protein 692)	0.32	enough cells in well	216	inactive
7	Mtmr11 (myotubularin related protein 11)	1.16	enough cells in well	182	inactive
8	Robo4 (roundabout guidance receptor 4)	0.4	enough cells in well	150	inactive
9	Pcdhga3 (protocadherin gamma subfamily A, 3)	0.44	enough cells in well	176	inactive
10	D7Ertd413e (DNA segment, Chr 7, ERATO Doi 413, expressed)		fewer than 50 cells per well; well left out of calls	41.8	inactive
11	Syne2 (spectrin repeat containing, nuclear envelope 2)	-0.63	enough cells in well	144	inactive
12	Dera (deoxyribose-phosphate aldolase)	-0.12	enough cells in well	218	inactive
13	Lrrc31 (leucine rich repeat containing 31)	-0.6	enough cells in well	150	inactive
14	Nemp2 (nuclear envelope integral membrane protein 2)	0.36	enough cells in well	151	inactive
15	1700006J14Rik (RIKEN cDNA 1700006J14 gene)	-0.42	enough cells in well	200	inactive
16	Cytip (cytohesin 1 interacting protein)	-1.49	enough cells in well	73.9	active
17	Mtfp1 (mitochondrial fission process 1)	-0.74	enough cells in well	163	inactive
18	Trpm7	0.1	enough cells in well	184	inactive
19	Cryab (crystallin, alpha B)	-0.52	enough cells in well	199	inactive
20	Tars3 (threonyl-tRNA synthetase 3)	0.2	enough cells in well	176	inactive
21	2410002F23Rik (RIKEN cDNA 2410002F23 gene)		fewer than 50 cells per well; well left out of calls	103	inactive
22	Zfp637 (zinc finger protein 637)	1.17	enough cells in well	263	inactive
23	Dock3 (dedicator of cyto-kinesis 3)	-0.27	enough cells in well	192	inactive
24	Cmpk2 (cytidine/uridine monophosphate kinase 2)	2.33	enough cells in well	216	inactive
25	Cip2a	-0.31	enough cells in well	79.7	inactive
26	Vmn1r17 (vomeronasal 1 receptor 17)	2.44	enough cells in well	184	inactive

The list goes on (2 carried over from the part before).
no.	gene	Tnf reporter robust z-score	fewer than 50 cells in well	Tnf reporter intensity, replicate 1	call
25	Cip2a	-0.31	enough cells in well	79.7	inactive
26	Vmn1r17 (vomeronasal 1 receptor 17)	2.44	enough cells in well	184	inactive
27	Six3 (sine oculis-related homeobox 3)	0.81	enough cells in well	357	inactive
28	Bglap3 (bone gamma-carboxyglutamate protein 3)	1.51	enough cells in well	16	inactive
29	Col9a3 (collagen, type IX, alpha 3)	-0.24	enough cells in well	183	inactive
30	Yipf5 (Yip1 domain family, member 5)	3.77	enough cells in well	520	active
31	Slc29a4		fewer than 50 cells per well; well left out of calls	58.2	inactive
32	Defb10 (defensin beta 10)	-0.43	enough cells in well	162	inactive
33	Csnk2a2ip (casein kinase 2, alpha prime interacting protein)	0.98	enough cells in well	219	inactive
34	Slco1b2		fewer than 50 cells per well; well left out of calls	0	inactive
35	Tulp3 (TUB like protein 3)		fewer than 50 cells per well; well left out of calls	103	inactive
36	Zfp462 (zinc finger protein 462)	0.06	enough cells in well	107	inactive
37	Plod2 (procollagen lysine, 2-oxoglutarate 5-dioxygenase 2)	-0.85	enough cells in well	91.2	inactive
38	Prxl2b (peroxiredoxin like 2B)		fewer than 50 cells per well; well left out of calls	163	inactive
39	Pprc1	-0.72	enough cells in well	180	inactive
40	Or2l13 (olfactory receptor family 2 subfamily L member 13)	1.93	enough cells in well	429	inactive
